The other results are listed elsewhere or left out.

Amino acid sequences for entries named in this document (tags omitted). A change or cut given only in a name is not applied to a line headed by its entry.
UniProt O75880: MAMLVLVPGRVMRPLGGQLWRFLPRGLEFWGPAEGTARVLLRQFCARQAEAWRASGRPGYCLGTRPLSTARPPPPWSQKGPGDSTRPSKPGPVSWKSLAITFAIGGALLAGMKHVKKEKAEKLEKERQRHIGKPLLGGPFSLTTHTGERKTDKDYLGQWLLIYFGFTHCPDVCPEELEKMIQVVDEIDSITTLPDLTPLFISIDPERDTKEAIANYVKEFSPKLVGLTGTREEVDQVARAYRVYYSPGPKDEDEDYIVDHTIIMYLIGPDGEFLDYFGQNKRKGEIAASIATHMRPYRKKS
UniProt O95487: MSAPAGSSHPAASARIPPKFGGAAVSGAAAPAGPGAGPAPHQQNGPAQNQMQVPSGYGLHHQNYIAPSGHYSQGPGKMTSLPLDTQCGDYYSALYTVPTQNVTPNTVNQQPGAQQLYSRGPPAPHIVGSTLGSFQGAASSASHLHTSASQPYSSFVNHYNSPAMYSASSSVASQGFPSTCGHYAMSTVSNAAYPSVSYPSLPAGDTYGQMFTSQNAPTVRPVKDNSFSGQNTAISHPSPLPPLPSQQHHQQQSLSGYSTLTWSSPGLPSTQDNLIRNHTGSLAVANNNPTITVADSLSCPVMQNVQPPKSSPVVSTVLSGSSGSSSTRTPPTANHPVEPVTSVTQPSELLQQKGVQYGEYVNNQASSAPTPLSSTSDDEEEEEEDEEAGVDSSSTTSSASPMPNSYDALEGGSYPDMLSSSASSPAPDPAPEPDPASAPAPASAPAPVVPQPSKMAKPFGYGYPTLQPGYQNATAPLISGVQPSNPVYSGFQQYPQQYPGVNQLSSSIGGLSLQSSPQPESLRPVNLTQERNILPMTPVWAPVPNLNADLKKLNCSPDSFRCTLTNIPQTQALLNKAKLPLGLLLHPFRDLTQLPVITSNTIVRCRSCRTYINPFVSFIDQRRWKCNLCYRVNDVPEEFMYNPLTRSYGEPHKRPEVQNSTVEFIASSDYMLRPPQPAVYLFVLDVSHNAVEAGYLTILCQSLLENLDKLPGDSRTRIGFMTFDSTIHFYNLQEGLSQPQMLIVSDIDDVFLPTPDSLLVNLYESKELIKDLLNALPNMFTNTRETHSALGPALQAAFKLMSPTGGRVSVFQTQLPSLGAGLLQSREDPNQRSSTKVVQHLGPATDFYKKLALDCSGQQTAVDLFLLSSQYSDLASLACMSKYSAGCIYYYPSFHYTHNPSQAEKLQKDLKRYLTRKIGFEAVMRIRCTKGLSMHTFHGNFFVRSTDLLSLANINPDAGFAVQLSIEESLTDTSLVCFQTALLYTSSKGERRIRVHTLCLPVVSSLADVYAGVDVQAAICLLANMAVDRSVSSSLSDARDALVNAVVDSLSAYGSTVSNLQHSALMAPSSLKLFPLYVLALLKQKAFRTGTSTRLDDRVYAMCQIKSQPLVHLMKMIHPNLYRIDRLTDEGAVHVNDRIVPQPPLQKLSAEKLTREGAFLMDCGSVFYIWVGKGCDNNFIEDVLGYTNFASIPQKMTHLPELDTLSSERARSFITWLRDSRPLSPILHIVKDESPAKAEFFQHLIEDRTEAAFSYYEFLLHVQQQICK
UniProt O95248: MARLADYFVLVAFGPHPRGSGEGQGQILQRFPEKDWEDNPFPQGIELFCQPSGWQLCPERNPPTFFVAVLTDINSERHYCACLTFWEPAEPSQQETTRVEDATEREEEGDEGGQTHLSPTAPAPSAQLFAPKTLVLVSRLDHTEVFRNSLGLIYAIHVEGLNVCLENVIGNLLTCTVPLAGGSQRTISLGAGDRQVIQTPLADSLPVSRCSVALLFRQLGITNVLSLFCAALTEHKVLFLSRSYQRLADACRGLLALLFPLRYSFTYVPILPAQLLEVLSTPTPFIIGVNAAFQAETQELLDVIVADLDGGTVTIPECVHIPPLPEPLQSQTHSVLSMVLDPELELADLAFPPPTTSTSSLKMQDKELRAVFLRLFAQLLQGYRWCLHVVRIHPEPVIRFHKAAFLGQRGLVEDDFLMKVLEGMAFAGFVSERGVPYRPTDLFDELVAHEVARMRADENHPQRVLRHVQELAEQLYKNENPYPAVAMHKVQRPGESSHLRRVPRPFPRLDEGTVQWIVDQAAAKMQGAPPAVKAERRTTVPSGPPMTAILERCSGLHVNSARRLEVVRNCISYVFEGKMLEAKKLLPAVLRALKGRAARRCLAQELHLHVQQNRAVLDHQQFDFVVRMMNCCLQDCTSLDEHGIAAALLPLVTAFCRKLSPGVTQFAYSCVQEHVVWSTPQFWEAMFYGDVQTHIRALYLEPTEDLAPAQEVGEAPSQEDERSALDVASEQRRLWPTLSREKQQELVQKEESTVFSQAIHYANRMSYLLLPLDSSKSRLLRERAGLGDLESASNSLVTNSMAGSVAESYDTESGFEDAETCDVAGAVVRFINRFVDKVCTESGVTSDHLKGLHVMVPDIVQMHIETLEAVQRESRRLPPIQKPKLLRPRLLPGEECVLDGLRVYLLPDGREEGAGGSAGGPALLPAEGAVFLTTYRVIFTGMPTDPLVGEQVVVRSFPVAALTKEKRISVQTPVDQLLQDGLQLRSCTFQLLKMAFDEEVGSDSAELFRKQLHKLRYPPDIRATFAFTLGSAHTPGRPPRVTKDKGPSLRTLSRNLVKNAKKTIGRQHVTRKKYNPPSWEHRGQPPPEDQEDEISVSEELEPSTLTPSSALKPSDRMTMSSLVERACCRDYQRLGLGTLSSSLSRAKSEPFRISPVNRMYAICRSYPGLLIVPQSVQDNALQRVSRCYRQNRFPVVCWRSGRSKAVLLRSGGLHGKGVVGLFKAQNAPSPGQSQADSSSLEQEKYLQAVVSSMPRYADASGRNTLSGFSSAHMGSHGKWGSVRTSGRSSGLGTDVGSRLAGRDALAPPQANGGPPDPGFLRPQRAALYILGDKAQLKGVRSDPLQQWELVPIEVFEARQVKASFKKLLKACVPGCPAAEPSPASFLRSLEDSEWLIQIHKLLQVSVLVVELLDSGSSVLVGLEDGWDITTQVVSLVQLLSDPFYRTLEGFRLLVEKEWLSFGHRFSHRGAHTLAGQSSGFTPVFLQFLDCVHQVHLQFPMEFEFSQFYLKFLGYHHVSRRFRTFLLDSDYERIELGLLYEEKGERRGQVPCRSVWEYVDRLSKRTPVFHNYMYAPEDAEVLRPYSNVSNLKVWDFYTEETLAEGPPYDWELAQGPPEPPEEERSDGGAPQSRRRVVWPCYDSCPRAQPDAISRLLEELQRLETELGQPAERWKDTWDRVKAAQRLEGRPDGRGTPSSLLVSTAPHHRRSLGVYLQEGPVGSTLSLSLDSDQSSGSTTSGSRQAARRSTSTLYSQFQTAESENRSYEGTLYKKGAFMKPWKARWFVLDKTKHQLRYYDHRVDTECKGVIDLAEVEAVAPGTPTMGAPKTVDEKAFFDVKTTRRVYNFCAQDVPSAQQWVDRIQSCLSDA
UniProt Q8WWV3: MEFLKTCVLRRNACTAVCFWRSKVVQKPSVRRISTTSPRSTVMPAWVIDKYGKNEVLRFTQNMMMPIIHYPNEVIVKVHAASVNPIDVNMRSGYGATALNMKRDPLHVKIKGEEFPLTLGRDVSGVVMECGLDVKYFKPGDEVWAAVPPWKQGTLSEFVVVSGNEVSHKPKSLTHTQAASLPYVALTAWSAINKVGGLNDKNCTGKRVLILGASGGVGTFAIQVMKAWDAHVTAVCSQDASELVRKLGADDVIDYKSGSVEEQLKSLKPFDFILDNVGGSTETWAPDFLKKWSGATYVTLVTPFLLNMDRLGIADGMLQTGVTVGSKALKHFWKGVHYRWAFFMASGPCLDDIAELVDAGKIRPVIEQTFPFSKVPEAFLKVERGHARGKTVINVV
UniProt Q9Y3A5: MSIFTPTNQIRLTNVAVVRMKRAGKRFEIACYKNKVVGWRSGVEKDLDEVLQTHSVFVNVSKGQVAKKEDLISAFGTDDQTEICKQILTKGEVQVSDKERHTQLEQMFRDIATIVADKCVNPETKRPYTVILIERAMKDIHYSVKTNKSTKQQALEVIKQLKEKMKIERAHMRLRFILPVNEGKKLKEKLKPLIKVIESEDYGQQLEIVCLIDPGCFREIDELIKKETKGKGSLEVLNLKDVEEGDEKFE
UniProt Q9UHR5: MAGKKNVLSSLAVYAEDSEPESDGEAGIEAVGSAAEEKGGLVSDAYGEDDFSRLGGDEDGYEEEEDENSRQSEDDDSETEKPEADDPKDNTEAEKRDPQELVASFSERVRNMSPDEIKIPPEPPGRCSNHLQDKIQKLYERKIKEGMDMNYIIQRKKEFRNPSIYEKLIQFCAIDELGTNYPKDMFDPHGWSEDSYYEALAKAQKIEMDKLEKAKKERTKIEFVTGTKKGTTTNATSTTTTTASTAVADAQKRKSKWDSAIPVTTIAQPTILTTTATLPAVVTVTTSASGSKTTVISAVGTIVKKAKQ

Assay in all cases: log2 fold change, soluble protein after heating vs DMSO (PISA); higher = thermal stabilisation; K562 cells, 10 uM, 30 min; active = over 0.2 and 3.5 SD of the protein, either way, in both replicates (recomputed)
Compound in assay [1]: C1=CC=C(C=C1)[C@H](COC2=CC3=C(C=C2)NC(=O)N3)NC(=O)C4=CC=CN(C4=O)CC5=CC(=C(C=C5)F)F
The procedure, abridged:
(§1)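 K562 cells at 2×10^6 cells/mL were exposed to 10 μM compound for 30 min, then aliquots were heated for 3 min across 48°C-58°C, pooled, and extracted in PBS containing 0.5% NP-40 at 4°C. The supernatant after 21,000xg for 90 min was taken as soluble protein and measured by TMTpro 16plex LC-MS/MS with channel sums equalised. Thermal stability is reported relative to control samples, with values from duplicates. Fold changes are given on a log2 scale.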

Compound in assay [2]: CC1=C(SC2=C1C(=N[C@H](C3=NN=C(N32)C)CC(=O)N)C4=CC=C(C=C4)Cl)C
The procedure, abridged: as §1

Compound in assay [3]: CC1=C2C(=CC=C1)N=C(N(C2=O)C3=CC=CC=C3C)CN4C=NC5=C(N=CN=C54)N
A digest of the protocol: as §1

Compound in assay [4]: Cc1sc2c(c1C)C(c1ccc(Cl)cc1)=N[C@@H](CC(=O)OC(C)(C)C)c1nnc(C)n1-2
A digest of the protocol: as §1

Compound in assay [5]: c1ccc([C@@H]2C[C@H]2NC2CCNCC2)cc1
A digest of the protocol: as §1

Compound in a further assay: C#Cc1cccc(Nc2ncnc3cc(OCCOC)c(OCCOC)cc23)c1 [erlotinib]
A digest of the protocol:
as §1

Compound in assay [6]: C1=CC(=CC=C1C2=NC3=C(N2)C=C(C=C3)C(=O)N)OC4=CC=C(C=C4)Cl
A digest of the protocol:
as §1

Compound in assay [7]: C1CCN(C1)C(=O)NC2=CC=CC(=C2)NC3=NC=C(C(=N3)NCCC4=CN=CN4)Br
The procedure, abridged:
as §1

Compound in assay [8]: C1CN(CCC1(CC2=CC=C(C=C2)Cl)N)C3=NC=NC4=C3C=CN4
The procedure, abridged: as §1

Compound in assay [9]: CC(C)C1=C2N=C(C=C(N2N=C1)NCC3=CC=CC=C3)NCCCCCCN
The procedure, abridged:
as §1

Compound in assay [10]: CC1=C(C2=C(C=C1)C(=O)C3=CC=CC=C3N2CCCN)C
A digest of the protocol: as §1

Compound in assay [11]: CC1=C(C=C(C=C1)NC(=O)C2=CC(=CC=C2)C(C)(C)C#N)NC3=CC4=C(C=C3)N=CN(C4=O)C
A digest of the protocol:
as §1

Compound in the next assay: CCN(CC)Cc1ccc2cc(COC(=O)Nc3ccc(C(=O)NO)cc3)ccc2c1 [givinostat]
A digest of the protocol:
as §1

Compound in assay [12]: CCn1c(C(=O)N(C2CC2)C2CC2)cc2c3c(ncn3C)c(Nc3cc(C)n(C)n3)nc21
The procedure, abridged:
as §1

Compound in assay [13]: CN1C2=C(C3=C1C(=O)N(N=C3)CC4=CC(=CC=C4)N)SC(=C2)S(=O)C
A digest of the protocol: as §1

Compound in another assay: CN1CCN(CCOc2cc(OC3CCOCC3)c3c(Nc4c(Cl)ccc5c4OCO5)ncnc3c2)CC1 [saracatinib]
A digest of the protocol:
as §1

Compound in the next assay: CN1CCN(c2nc(C3=C(c4c[nH]c5ccccc45)C(=O)NC3=O)c3ccccc3n2)CC1 [sotrastaurin]
A digest of the protocol: as §1

Compound in the next assay: CN1CCc2c(c3ccccc3n2Cc2ccc(C(=O)NO)cc2)C1 [Tubastatin A]
The procedure, abridged:
as §1

Compound in assay [14]: CNC(=O)C1=CC=CC=C1NC2=NC(=NC=C2Cl)NC3=C(C=C(C=C3)N4CCOCC4)OC
The procedure, abridged: as §1

Compound in assay [15]: CNc1nc(-c2ccc3c(N)n[nH]c3c2)cc(N2C[C@@H](C(=O)NC3CCCCC3)CC[C@H]2C)n1
The procedure, abridged:
as §1

Compound in another assay: CON(C)C(=O)N1N=C(c2cc(F)ccc2F)S[C@@]1(CCCN)c1ccccc1 [filanesib]
The procedure, abridged:
as §1

Compound in assay [16]: CS(=O)(=O)c1ccc(-c2cnc(N)c(C(=O)Nc3ccccc3)n2)cc1
The procedure, abridged:
as §1

Compound in another assay: C[C@H](Nc1ncnc2nc[nH]c12)c1cc2cccc(Cl)c2c(=O)n1-c1ccccc1 [duvelisib]
The procedure, abridged:
as §1

Compound in the next assay: Cc1cc(Nc2cc(N3CCN(C)CC3)nc(Sc3ccc(NC(=O)C4CC4)cc3)n2)n[nH]1 [tozasertib]
The procedure, abridged: as §1

Compound in assay [17]: Cc1cc(SCc2sc(-c3ccc(C(F)(F)F)cc3)nc2C)ccc1OCC(=O)O
The procedure, abridged:
as §1

Compound in a further assay: Cc1nc(Nc2ncc(C(=O)Nc3c(C)cccc3Cl)s2)cc(N2CCN(CCO)CC2)n1 [dasatinib]
The procedure, abridged: as §1

Compound in assay [18]: NC(=O)Nc1cc(-c2cccc(F)c2)sc1C(=O)N[C@H]1CCCNC1
The procedure, abridged: as §1

Compound in a further assay: Nc1ccccc1NC(=O)c1ccc(CNC(=O)OCc2cccnc2)cc1 [entinostat]
A digest of the protocol: as §1

As to SCO1 (UniProt O75880), the log2 fold change in assay [1] is inactive: 0.031; in assay [2] it was inactive: 0.061; in assay [3], inactive: 0.131; in assay [4] it was inactive: 0.061; in assay [5] it was inactive: -0.011.

SEC24B isoform 3 (UniProt O95487): the log2 fold change was inactive: 0.027 in [1]; inactive: -0.001 in [2]; inactive: 0.088 in assay [3]; inactive: 0.043 in assay [4]; inactive: 0.091 in assay [5].

For SBF1 isoform 4 (UniProt O95248), the log2 fold change is inactive: 0.03 in [1]; inactive: -0.26 in assay [2]; inactive: -0.18 in assay [3]; inactive: 0.102 in assay [4]; inactive: -0.044 in [5].

For the target SAFB2 (UniProt K7EQU4), the log2 fold change in assay [1] is inactive: -0.338.

RTN4IP1 (UniProt Q8WWV3): the log2 fold change in [1] is inactive: 0; in assay [2] it was inactive: 0.07; in assay [3], active: 0.999; in assay [4], inactive: -0.051; in [5] it was inactive: -0.108.

As for SARS1 (UniProt Q5T5C7), the log2 fold change with erlotinib is inactive: -0.059; in assay [6], inactive: 0.213; in [7] it was inactive: -0.058; in assay [8], inactive: -0.04; in assay [9], inactive: 0.183; in assay [10], inactive: -0.112. Besides, the log2 fold change in assay [11] is inactive: -0.016; with givinostat it was inactive: 0.004; in assay [12], inactive: -0.044; in assay [13] it was inactive: 0.083; with saracatinib it was inactive: 0.09; with sotrastaurin, inactive: -0.004. The log2 fold change with Tubastatin A is inactive: 0.033; in assay [14] it was inactive: -0.174; in assay [15] it was inactive: 0.005; with filanesib, inactive: 0.127; in assay [16], inactive: 0.031; with duvelisib it was inactive: -0.06. In addition, the log2 fold change with tozasertib was inactive: 0.044; in assay [17], inactive: -0.031; with dasatinib, inactive: -0.057; in [4] it was inactive: -0.007; in [18] it was inactive: 0.226; in the assay with entinostat, inactive: -0.01.

SBDS (UniProt Q9Y3A5): the log2 fold change in assay [1] was inactive: -0.067; in [2], inactive: 0.067; in [3] it was inactive: 0.113; in assay [4], inactive: -0.025; in assay [5] it was inactive: -0.041.

With SAP30BP (UniProt Q9UHR5), the log2 fold change in assay [1] was inactive: -0.004; in assay [2], inactive: -0.01; in assay [3], inactive: 0.039; in assay [4] it was inactive: 0.002; in assay [5], inactive: 0.023.

For the origin of these results see the supplement of paper PMC10849652.
